PubChem BioAssay AID504791, Drosophila RNAi Screening Center | 2011
Aim: 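Genes whose knock-down strengthens or weakens small-RNA reporter silencing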 (primary screen). Cell system: Drosophila S2-derived reporter cells. Knock-down reagent: long dsRNA against Drosophila genes, about 150-250 ng dsRNA per well (siRNA assay); about 80-120 ng (miRNA assay). Time to read-out: about 5 days (siRNA assay); about 4 days (miRNA assay). Challenge: copper sulfate induction of reporters: 25 µM (siRNA assay); 200 mM stated (miRNA assay), 1-2 days before reading. Measurement: 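Per-well ratio of Renilla over firefly light, expressed relative to that plate's average ratio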. Call rule: 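First-pass picks had plate-scaled ratios over 1.5 for the siRNA assay, over 1.6 for the miRNA assay, or under 0.6; two distinct dsRNAs had to score alike on retest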.
In all, the deposit lists about 23,000 reagents; shown is an unselected part of those that have a named target and a result. Of all reagents, 199 (0.86%) were called active. 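Plate-scaled ratios behind the calls are not deposited; printed light signals are raw; many rows marked increased or decreased are still called inactive.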 Entries without a mark were called inactive. Reagents against one gene are numbered here. Names joined by + are all predicted targets of the reagent. The record does not give: the direction of the score.

gene | reagent | miRNA reporter change | stable assay Renilla, run 1 (luminescence) | stable assay firefly, run 1 (luminescence)
l(2)k01209 (lethal (2) k01209) | 1 | – | 5598 | 3.36e5
l(2)k01209 (lethal (2) k01209) | 2 | reporter ratio lowered past the hit cutoff | – | –
CG7715 | 1 | – | 6434 | 3.55e5
eIF2Bepsilon (eukaryotic translation initiation factor 2B subunit epsilon) | 1 | – | 8418 | 5.98e5
Nlg2 (Neuroligin 2) | 1 | – | 9419 | 4.48e5
CG31817 | 1 | – | 5967 | 2.85e5
CG31817 | 2 | – | 4704 | 4.07e5
CG31817 | 3 | – | 2724 | 2.66e5
RpLP0-like (Ribosomal protein LP0-like) | 1 | – | 8983 | 4.03e5
Dbp45A (DEAD box protein 45A) | 1 | – | 8145 | 5.06e5
CG9121 | 1 | – | 6543 | 3.21e5
CG1647 | 1 | – | 7576 | 4.12e5
CG10822 | 1 | – | 6794 | 2.91e5
Gsc (Goosecoid) | 1 | – | 7458 | 5.01e5
CG31751 | 1 | – | 6599 | 5.21e5
CG31751 | 2 | – | 6726 | 5.14e5
CG7139 | 1 | – | 8265 | 2.22e5
shn (schnurri) | 1 | – | 6010 | 3.55e5
shn (schnurri) | 2 | – | 7897 | 4.55e5
CG34195 | 1 | – | 6666 | 3.21e5
tal-1A + tal-2A + tal-AA + 1 more | 1 | – | 4743 | 3.81e5
Spf30 (Splicing factor 30) | 1 | – | 8996 | 4.80e5
CkIIbeta2 (Casein kinase II beta2 subunit) | 1 | – | 5340 | 3.69e5
Argp (Arginine phosphatase) | 1 | – | 7879 | 3.93e5
CG18335 | 1 | – | 7032 | 3.04e5
Osi3 (Osiris 3) | 1 | – | 5963 | 3.23e5
betaNACtes1 (Nascent-associated complex beta-subunit-like, testis 1) | 1 | – | 4900 | 5.19e5
Su(var)3-3 (Suppressor of variegation 3-3) | 1 | – | 7763 | 3.10e5
CG8565 | 1 | – | 7299 | 5.26e5
Chro (Chromator) | 1 | – | 8091 | 3.28e5
PsGEF (retired record) | 1 | – | 6242 | 4.25e5
PsGEF (retired record) | 2 | – | 4547 | 2.86e5
Klc (Kinesin light chain) | 1 | – | 8011 | 3.84e5
CG2126 | 1 | – | 6123 | 4.24e5

Entries listed so far whose target name starts with S or s:
gene | reagent | miRNA reporter change | stable assay Renilla, run 1 (luminescence) | stable assay firefly, run 1 (luminescence)
shn (schnurri) | 1 | – | 6010 | 3.55e5
shn (schnurri) | 2 | – | 7897 | 4.55e5
Spf30 (Splicing factor 30) | 1 | – | 8996 | 4.80e5
Su(var)3-3 (Suppressor of variegation 3-3) | 1 | – | 7763 | 3.10e5
